These are yes or no findings as the source states them, for the method shown. In cells and extracts the contact can be indirect. Some entries that bind do so weakly or less than the wild type. Sequences can lack the tags named with a protein.
Assays:
[1] = biological target: SNCG expressed in cells (MCF7-SNCG, T47D, or COS7 transfected with pCI-SNCG) (UniProt O76070); experiment: co-localization and co-IP with anti-SNCG antibody in MCF7-SNCG cells
[2] = biological target: SNCG expressed in cells (MCF7-SNCG, T47D, or COS7 transfected with pCI-SNCG) (UniProt O76070); experiment: co-IP with anti-SNCG antibody from transfected COS7 cells, western blot with anti-GFP
[3] = biological target: SNCG expressed in cells (MCF7-SNCG, T47D, or COS7 transfected with pCI-SNCG) (UniProt O76070); experiment: co-IP with anti-SNCG antibody, western blot with anti-GFP
[4] = biological target: SNCG expressed in cells (MCF7-SNCG, T47D, or COS7 transfected with pCI-SNCG) (UniProt O76070); experiment: co-IP experiments of FIGS. 5C and 5D

Amino acid sequences for entries named in this document (tags omitted). A change or cut given only in a name is not applied to a line headed by its entry.
UniProt O76070: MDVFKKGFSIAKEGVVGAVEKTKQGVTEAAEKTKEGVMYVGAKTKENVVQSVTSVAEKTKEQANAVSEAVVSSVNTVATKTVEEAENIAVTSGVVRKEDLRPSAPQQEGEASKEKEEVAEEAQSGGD

Measured: binding

B1: enhanced green fluorescent protein (EGFP)-ANK fusion protein (peptide, not shown: large carriers)
chain: KGNSALHVASQHGHLGCIQTLVRYGANVTMQNHG
binds: all assays above
